Results on one substance are retold here after PMC1291403.

Protein sequences, listed by entry. Tags and fused reporters are not part of them. Residues count along the entry.
UniProt P78536, residues 215-824: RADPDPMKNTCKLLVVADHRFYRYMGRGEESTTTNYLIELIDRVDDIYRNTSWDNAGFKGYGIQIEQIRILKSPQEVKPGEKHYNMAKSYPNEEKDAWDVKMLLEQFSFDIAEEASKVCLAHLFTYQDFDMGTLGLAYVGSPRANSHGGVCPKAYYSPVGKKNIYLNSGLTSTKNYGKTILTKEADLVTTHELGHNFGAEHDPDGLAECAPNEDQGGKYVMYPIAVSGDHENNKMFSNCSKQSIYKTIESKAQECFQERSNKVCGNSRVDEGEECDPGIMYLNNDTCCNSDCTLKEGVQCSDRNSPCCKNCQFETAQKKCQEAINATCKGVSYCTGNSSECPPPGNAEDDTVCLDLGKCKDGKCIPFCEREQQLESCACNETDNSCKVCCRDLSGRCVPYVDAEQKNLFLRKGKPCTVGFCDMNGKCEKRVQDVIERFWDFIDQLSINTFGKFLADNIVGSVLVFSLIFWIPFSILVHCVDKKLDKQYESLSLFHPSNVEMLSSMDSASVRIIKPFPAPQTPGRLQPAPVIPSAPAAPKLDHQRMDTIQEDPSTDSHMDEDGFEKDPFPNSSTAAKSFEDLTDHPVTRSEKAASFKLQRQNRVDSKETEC
UniProt P01375: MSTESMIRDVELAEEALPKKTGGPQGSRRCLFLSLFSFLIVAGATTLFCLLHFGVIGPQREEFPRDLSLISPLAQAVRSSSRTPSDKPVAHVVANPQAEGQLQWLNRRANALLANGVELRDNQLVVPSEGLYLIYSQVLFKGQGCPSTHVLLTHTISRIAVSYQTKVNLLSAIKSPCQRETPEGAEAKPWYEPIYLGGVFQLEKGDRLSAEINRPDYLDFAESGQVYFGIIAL

This assay concerns the target TNF-α converting enzyme (TACE) (human (endogenous in A549)) (UniProt P78536). In words: FRET or BRET; acceptor photobleaching FRET microscopy on formaldehyde-fixed transfected A549 cells; donor FITC-conjugated anti-TNF-α (Mab11), acceptor anti-TACE (M222) with Cy3-conjugated Fab; cells untreated or treated with 50 mM methanol, ethanol or 1-propanol for 60 minutes, or alcohol followed by a 1 hour washout. (In general: BRET reads energy transfer from a luciferase to a nearby fluorophore.)

No constants are given. Whether binding was seen depends on the method and setting. In cells and extracts the contact can be indirect. Some results given as binding are weak or reduced against the parent protein; the word gives no strength.

In the case of “FLAG-tagged human TNF-α (from UniProt P01375 1-233)”, the binding entry is given as “binds”.
